Measured values published in PMC10350107.
These are yes or no findings as the source states them, for the method shown.

Protein sequences, listed by entry. Tags and fused reporters are not part of them.
UniProt Q9NXL9: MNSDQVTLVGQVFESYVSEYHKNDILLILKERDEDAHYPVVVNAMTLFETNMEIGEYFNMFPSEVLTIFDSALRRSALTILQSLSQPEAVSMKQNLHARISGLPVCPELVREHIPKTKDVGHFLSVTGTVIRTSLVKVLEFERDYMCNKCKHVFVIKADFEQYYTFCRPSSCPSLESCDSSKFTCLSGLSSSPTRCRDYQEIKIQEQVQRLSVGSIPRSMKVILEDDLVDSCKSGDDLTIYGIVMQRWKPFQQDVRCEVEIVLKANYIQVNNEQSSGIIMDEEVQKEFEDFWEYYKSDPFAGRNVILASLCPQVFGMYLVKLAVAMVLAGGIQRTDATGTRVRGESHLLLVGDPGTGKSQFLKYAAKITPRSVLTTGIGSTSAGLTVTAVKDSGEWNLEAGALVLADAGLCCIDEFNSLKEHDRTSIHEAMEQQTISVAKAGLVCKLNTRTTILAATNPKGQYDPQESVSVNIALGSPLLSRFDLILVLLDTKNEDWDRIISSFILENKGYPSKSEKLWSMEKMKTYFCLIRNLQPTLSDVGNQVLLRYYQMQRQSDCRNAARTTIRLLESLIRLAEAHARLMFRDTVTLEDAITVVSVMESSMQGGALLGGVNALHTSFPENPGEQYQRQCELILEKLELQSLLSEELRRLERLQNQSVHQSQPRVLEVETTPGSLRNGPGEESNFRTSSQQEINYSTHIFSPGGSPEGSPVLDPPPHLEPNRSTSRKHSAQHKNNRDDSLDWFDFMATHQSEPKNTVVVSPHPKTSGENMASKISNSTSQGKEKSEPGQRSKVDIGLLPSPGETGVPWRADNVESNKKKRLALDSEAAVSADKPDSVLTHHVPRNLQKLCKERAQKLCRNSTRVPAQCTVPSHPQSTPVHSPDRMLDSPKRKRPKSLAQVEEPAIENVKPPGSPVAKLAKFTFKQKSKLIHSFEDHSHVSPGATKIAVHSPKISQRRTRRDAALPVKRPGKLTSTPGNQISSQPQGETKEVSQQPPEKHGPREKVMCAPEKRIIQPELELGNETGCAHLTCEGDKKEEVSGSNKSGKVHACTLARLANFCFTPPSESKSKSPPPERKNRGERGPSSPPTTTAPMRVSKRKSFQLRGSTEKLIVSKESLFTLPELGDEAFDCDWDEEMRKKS

Target: MBP-MCM9, wild type human MCM9 (human) (UniProt Q9NXL9)
Assay: mass photometry; 50 mM Tris-HCl pH 7.5, 100 mM NaCl; 50–200 nM final protein; no DNA; for MCM8–9 oligomers are counted in subunits (heterodimer 266 kDa, hexamer 798 kDa): heterodimers to tetramers and hexamers; both purified

binding: no binding
Substance: MBP-MCM9, wild type human MCM9 (from UniProt Q9NXL9 1-1143)
